Assay [1] addresses Flag-tagged WDR79 (WD repeat protein 79) (human) (UniProt Q9BUR4). As to the kind of experiment: co-IP; A549 cells transfected with Flag-WDR79; lysate precipitated with anti-Flag antibody, blotted for USP7; Universal Magnetic Co-IP Kit, 1 mg crude extract, 3 μg antibody overnight at 4 °C, protein G magnetic beads.
The target in assay [2] is WDR79 (WD repeat protein 79), endogenous (human (endogenous in H1299)) (UniProt Q9BUR4). As to the kind of experiment: co-IP; endogenous proteins in H1299 lysate; precipitated with anti-WDR79 or with anti-USP7 antibody, isotype-matched IgG as control; Universal Magnetic Co-IP Kit, 1 mg crude extract, 3 μg antibody overnight at 4 °C.
In assay [3] the target is USP7 (ubiquitin-specific protease 7), endogenous (human (endogenous in A549 and H1299)) (UniProt Q93009). The assay is described as above.

By UniProt entry, the sequences of proteins in these tests, tags left out.
UniProt Q9BUR4: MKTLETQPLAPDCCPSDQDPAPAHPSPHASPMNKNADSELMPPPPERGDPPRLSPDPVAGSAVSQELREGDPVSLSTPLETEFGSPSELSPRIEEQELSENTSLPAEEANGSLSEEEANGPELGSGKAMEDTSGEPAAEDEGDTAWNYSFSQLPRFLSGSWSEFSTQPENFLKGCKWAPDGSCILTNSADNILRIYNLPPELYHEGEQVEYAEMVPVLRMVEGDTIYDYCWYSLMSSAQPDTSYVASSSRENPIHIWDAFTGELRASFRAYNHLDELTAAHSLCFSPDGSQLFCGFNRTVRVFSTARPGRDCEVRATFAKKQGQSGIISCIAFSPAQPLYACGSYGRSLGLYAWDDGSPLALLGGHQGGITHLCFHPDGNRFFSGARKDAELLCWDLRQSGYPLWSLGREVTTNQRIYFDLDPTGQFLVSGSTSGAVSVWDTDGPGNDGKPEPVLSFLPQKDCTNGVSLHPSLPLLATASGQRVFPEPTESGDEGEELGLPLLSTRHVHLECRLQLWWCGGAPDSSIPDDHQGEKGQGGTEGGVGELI

These are yes or no findings as the source states them, for the method shown. Binding seen in cells or lysates may run through a third protein. Some binding calls cover weakened binding; strength is not graded here.

For the substance “USP7 (ubiquitin-specific protease 7), endogenous (from UniProt Q93009 1-1102) (enzyme)”, the binding result in assay [1] and in assay [2] was “binds” in each case. Turning to “WDR79 (WD repeat protein 79), endogenous (from UniProt Q9BUR4 1-548)”, the binding result in assay [3] was “binds”.
